Results deposited as PubChem BioAssay AID743454 (Peter MacCallum Cancer Centre, 2014)
Purpose: 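Genes whose loss kills vorinostat-resistant colon cancer cells under vorinostat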 (primary screen). Cell system: human HCT116-VR colon cancer cells, selected for vorinostat resistance. Reagent: siRNA pool against human genes, 40 nM siRNA pool. Time to read-out: vorinostat for 24 h, read-out about 72 h after transfection. Challenge: vorinostat at 2.5 µM final. Detection: 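Cell viability by CellTiter-Fluor and caspase 3/7 activity by luminescence, each scaled to mock wells per plate, duplicates averaged, then robust z-scored over all plates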. Scale: viability robust z-score: higher = more viable cells than screen typical; caspase robust z-score: higher = more caspase 3/7 activity than screen typical. Hit rule: 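a knock-down is a hit when classed RV1 or RV2 for lowered viability, or CA1 or CA2 for caspase activation; those lethal without drug were dropped; hits were retested singly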.
The deposit covers about 18,000 reagents; this is a random part of them. In the full data, 450 (2.5%) are marked active. 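Single biological run; no consistent viability z cut-off exists, so the class columns, not z-scores, define the calls.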 No sequences are given here.

gene symbol	viability hit class	caspase hit class	viability robust z-score	caspase robust z-score	outcome
OAT	no change	no change	-0.01	-0.06	inactive
OR4F16	no change	no change	-0.16	-1.06	inactive
COX7A1	no change	no change	0.01	2.02	inactive
AKIP1	no change	no change	0.68	0.06	inactive
WDTC1	no change	no change	-1.04	-0.29	inactive
SLIRP	no change	no change	1.66	0.17	inactive
VIPR1	no change	no change	0.15	-0.16	inactive
NELFA	no change	no change	-0.8	0.38	inactive
ARHGAP5	no change	no change	-0.08	0.36	inactive
LSM5	no change	no change	-1.19	-0.55	inactive
SPSB3	RV2 (reduced viability)	no change	-3.25	-0.95	active
PSAP	no change	no change	-0.24	1.15	inactive
TPH2	no change	no change	0.92	0.6	inactive
CBLL2	no change	no change	0.18	-0.43	inactive
PSMD6	no change	no change	-3.92	1.98	inactive
TTC36	no change	no change	0.01	1.31	inactive
B4GALT4	no change	CA2 (caspase activation)	0.6	7.43	active
RYR2	no change	no change	-1.7	0.26	inactive
ALG11	no change	no change	0.38	0.26	inactive
HSPA13	no change	no change	-0.96	0.12	inactive
AUH	no change	no change	-0.94	0.28	inactive
FBXW10B	no change	no change	-0.02	-0.4	inactive
FBXL19	no change	no change	-1	0.7	inactive
CNPY3	no change	no change	-1.46	-0.92	inactive
MRPL3	no change	no change	0.3	-0.16	inactive
VWA8	no change	no change	0.03	-0.62	inactive
UTP15	no change	no change	-1.98	-0.16	inactive
M1AP	no change	no change	-0.18	0.65	inactive
BUD31	no change	no change	-2.08	1.09	inactive
KAT8	no change	no change	-0.74	0.44	inactive
MIA3	no change	no change	0.61	-0.32	inactive
C1QB	no change	no change	-1.16	0.11	inactive
PHOX2A	no change	no change	1.32	-0.99	inactive
TRMT61B	no change	no change	-0.58	-0.84	inactive
LRTOMT	no change	no change	0.53	-1.08	inactive
TBCD	no change	no change	-0.25	-0.85	inactive
SLC1A3	no change	no change	-2.62	0.82	inactive
RAB40A	no change	no change	-0.46	0.4	inactive
CYP3A7	no change	no change	0.18	-0.02	inactive
KMT2E	no change	no change	-0.31	-0.55	inactive
ANKRD11	no change	no change	0.94	0.57	inactive
TMEM216	no change	no change	-0.52	2.2	inactive
SEH1L	no change	no change	-1.43	-0.5	inactive
ALDH1A1	no change	no change	-2.41	0.62	inactive
GDI1	no change	no change	0.28	0.63	inactive
RFFL	no change	no change	-1.21	-1.25	inactive
HMGA2	no change	no change	-1.04	0.4	inactive
ZNF136	no change	no change	0.15	-0.3	inactive
PPM1M	no change	no change	-0.83	-0.27	inactive
SLC2A3	no change	no change	1.01	-0.53	inactive
ACKR4	no change	no change	0.3	-1.09	inactive
ZFYVE9	no change	no change	0.98	0.34	inactive
GYPE	no change	no change	1.75	-0.7	inactive
CD96	no change	no change	0.36	-0.76	inactive
PNPLA6	no change	no change	1.38	-1.06	inactive
PELI2	no change	no change	-0.51	2.34	inactive
DDX39B	no change	no change	-0.54	-0.2	inactive

Part of the list above, showing only “viability hit class”:
ZNF136: no change
PPM1M: no change
SLC2A3: no change
ACKR4: no change
ZFYVE9: no change
GYPE: no change
CD96: no change
PNPLA6: no change
PELI2: no change
